Measurements as given in PMC4583372.
Results are given in words; binding and its absence hold for the method and conditions named. In cells and extracts the contact can be indirect. Here binding means that the protein was enriched with, or labelled near, the bait; the list need not be complete.

Sequences of proteins named here, by UniProt entry; tags and fusion partners are left off.
UniProt P32958: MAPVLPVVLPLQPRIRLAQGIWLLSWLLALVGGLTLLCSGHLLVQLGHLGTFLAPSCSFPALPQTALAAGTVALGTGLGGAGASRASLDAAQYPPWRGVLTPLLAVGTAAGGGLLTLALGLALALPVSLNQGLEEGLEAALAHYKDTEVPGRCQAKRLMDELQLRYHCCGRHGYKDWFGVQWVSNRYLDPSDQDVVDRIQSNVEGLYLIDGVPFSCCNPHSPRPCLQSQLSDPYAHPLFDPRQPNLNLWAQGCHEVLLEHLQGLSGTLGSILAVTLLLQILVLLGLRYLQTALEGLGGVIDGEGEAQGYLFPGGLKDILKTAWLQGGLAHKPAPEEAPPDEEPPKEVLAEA

Columns and labels:
[1] = molecular target: ROM-1 (rod outer segment protein 1) (mouse (endogenous in retina)) (UniProt P32958); assay: affinity purification with mass spectrometry; CHAPS-solubilized membrane pellet of WT mouse retinas; RDS mAB 2E7 or ROM-1 mAB 2H5 chemically linked to sepharose 2B beads, 1 h at 4°C; elution with 1% SDS; LC-MS; rds-/- retinas as negative control
[2] = molecular target: T1, Syntaxin-3 isoform B (Stx3) (mouse (endogenous in retina)) (UniProt Q64704); assay: affinity purification with mass spectrometry; CHAPS-solubilized membrane pellet of WT mouse retinas; anti-Syn3B (Synaptic Systems) and protein A beads overnight at 4°C; elution with 1% SDS; LC-MS; non-specific IgG as negative control
T1 sequence: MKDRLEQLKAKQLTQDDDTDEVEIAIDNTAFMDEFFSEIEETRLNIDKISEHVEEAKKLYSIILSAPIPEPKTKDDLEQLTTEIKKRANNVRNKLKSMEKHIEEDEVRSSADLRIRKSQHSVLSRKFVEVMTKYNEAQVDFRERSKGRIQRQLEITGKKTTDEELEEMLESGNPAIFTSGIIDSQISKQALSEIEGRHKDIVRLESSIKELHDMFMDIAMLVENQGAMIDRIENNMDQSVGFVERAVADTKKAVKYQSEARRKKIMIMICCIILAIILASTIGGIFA

binding [1]: binds
binding [2]: binds
B1: Peripherin-2 also known as RDS (retinal degeneration slow) (protein, UniProt P15499 1-346)
chain: MALLKVKFDQKKRVKLAQGLWLMNWLSVLAGIVLFSLGLFLKIELRKRSEVMNNSESHFVPNSLIGVGVLSCVFNSLAGKICYDALDPAKYAKWKPWLKPYLAVCIFFNVILFLVALCCFLLRGSLESTLAYGLKNGMKYYRDTDTPGRCFMKKTIDMLQIEFKCCGNNGFRDWFEIQWISNRYLDFSSKEVKDRIKSNVDGRYLVDGVPFSCCNPSSPRPCIQYQLTNNSAHYSYDHQTEELNLWLRGCRAALLNYYSSLMNSMGVVTLLVWLFEVSITAGLRYLHTALESVSNPEDPECESEGWLLEKSVPETWKAFLESFKKLGKSNQVEAEGADAGPAPEAG
